This experiment relates to BDF1 mice, intracerebral L1210 leukemia, survival T/C. The experiment in a line: NCI In Vivo Anticancer Drug Screen. Data for tumor model L1210 Leukemia (intracerebral) in B6D2F1 (BDF1) mice. The following applies: higher T/C = longer survival. As for the experimental part: The antitumor activity of compounds was measured in mice bearing transplantable tumors. Survival or tumor size were measured and the results are expressed as the measurement made in the treated group (T) divided by the measurement made in the vehicle treated control group (C). The tumor model used in this assay is L1210 Leukemia (intracerebral) in B6D2F1 (BDF1) mice

Where [1] appears, read: T/C endpoint: mean survival time, dose: 125.0 mg/kg/injection, schedule: Q01DX001 (ip), vehicle: other.

Molecules are shown by their SMILES. The list is a part of this screen's results and no random one: it is rich in T/C values a quarter to a half above the control, in often repeated tests (any T/C) and in doses without a T/C. Further doses and runs are listed elsewhere. T/C gives the treated animals as a percentage of the vehicle group. Some entries give survivors of the animals treated and no T/C: the source holds a T/C of zero for them, seemingly a mark for toxic or unscored doses. Some survivor counts are full or nearly so, which does not show that the dose was tolerated: the source hardly ever lists a survival T/C far under the control, and the zero likely stands for such cases as well. Survivors were counted at the toxicity check, usually on the fifth day, unless a day is given; later deaths do not show. Schedules are NCI's codes, taken here to give the interval after Q, in days (D) or hours (H), and the number of doses after X. Where survival is the endpoint, this PubChem deposit counts one and a half times the control or more as active, and values a quarter to a half above the control carry no call in these data; other NCI protocols may use other cut-offs. Some doses were run more than once; their values stand side by side, smallest first. Some T/C values are followed by the survivors on the day toxicity was checked, most often the fifth; where none is given, no animal had died by that day.

Take `N[C@H](C(=O)O)[C@H]1ON=C(Cl)[C@@H]1O`: the T/C is, setting by setting: (T/C endpoint: mean survival time, dose: 32.0 mg/kg/injection, schedule: Q01DX009 (ip), vehicle: saline) 129 % of control; (T/C endpoint: mean survival time, dose: 64.0 mg/kg/injection, schedule: Q01DX009 (ip), vehicle: saline) 135 % of control; (T/C endpoint: mean survival time, dose: 128.0 mg/kg/injection, schedule: Q01DX009 (ip), vehicle: saline) 134 % of control; (T/C endpoint: mean survival time, dose: 256.0 mg/kg/injection, schedule: Q01DX009 (ip), vehicle: saline) 140 % of control [7 of 8 alive]; (T/C endpoint: median survival time, dose: 16.0 mg/kg/injection, schedule: Q01DX009 (ip), vehicle: saline) 127 % of control; (T/C endpoint: median survival time, dose: 32.0 mg/kg/injection, schedule: Q01DX009 (ip), vehicle: saline) 128 % of control [7 of 8 alive]. For the same molecule, the T/C reads like this: (T/C endpoint: median survival time, dose: 64.0 mg/kg/injection, schedule: Q01DX009 (ip), vehicle: saline) 127 % of control; (T/C endpoint: median survival time, dose: 128.0 mg/kg/injection, schedule: Q01DX009 (ip), vehicle: saline) 145 % of control.

Turning to `CC1CCC(NC(=O)N(CCF)N=O)CC1` (centres undefined), under “T/C endpoint: mean survival time, dose: 30.0 mg/kg/injection, schedule: Q01DX001 (ip), vehicle: other”, the T/C was 140 % of control.

Turning to `CN(Cc1cnc2nc(N[Si](C)(C)C)nc(N[Si](C)(C)C)c2n1)c1ccc(C(=O)NC(CCC(=O)O[Si](C)(C)C)C(=O)O[Si](C)(C)C)cc1` (centres undefined), the T/C was 148 % of control (T/C endpoint: mean survival time, dose: 1.0 mg/kg/injection, schedule: Q01DX009 (ip), vehicle: saline) and 131 % of control (T/C endpoint: mean survival time, dose: 2.0 mg/kg/injection, schedule: Q01DX009 (ip), vehicle: Klucel (hydroxypropylcellulose) (HPC)). In addition, the survivor count reads like this: (T/C endpoint: mean survival time, dose: 8.0 mg/kg/injection, schedule: Q01DX009 (ip), vehicle: Klucel (hydroxypropylcellulose) (HPC)) 4 of 6; (T/C endpoint: mean survival time, dose: 8.0 mg/kg/injection, schedule: Q01DX009 (ip), vehicle: saline) 6 of 6; (T/C endpoint: mean survival time, dose: 16.0 mg/kg/injection, schedule: Q01DX009 (ip), vehicle: Klucel (hydroxypropylcellulose) (HPC)) 4 of 6.

`OC(CBr)C(O)C(O)C(O)CBr` (centres undefined): where the note is “T/C endpoint: mean survival time, dose: 200.0 mg/kg/injection, schedule: Q01DX009 (ip), vehicle: steroid suspending solution”, the T/C is 128 % of control. Where the note is “T/C endpoint: mean survival time, dose: 400.0 mg/kg/injection, schedule: Q01DX009 (ip), vehicle: steroid suspending solution”, the survivor count is 1 of 8.

`Cc1cccc2c(Nc3ccc(NS(C)(=O)=O)cc3)c3ccc([N+](=O)[O-])cc3nc12`: the survivor count runs as follows: (T/C endpoint: mean survival time, dose: 40.0 mg/kg/injection, schedule: Q01DX009 (ip), vehicle: saline) 10 of 10; (T/C endpoint: mean survival time, dose: 80.0 mg/kg/injection, schedule: Q01DX009 (ip), vehicle: saline) 10 of 10; (T/C endpoint: mean survival time, dose: 80.0 mg/kg/injection, schedule: Q01DX009 (sc), vehicle: saline) 8 of 10.

`O=NN(CCCl)C(=O)NC1CCCC1`: the T/C is 129 % of control (T/C endpoint: mean survival time, dose: 8.0 mg/kg/injection, schedule: Q01DX001 (ip), vehicle: saline); 128 and 137 % of control (T/C endpoint: mean survival time, dose: 9.0 mg/kg/injection, schedule: Q01DX001 (ip), vehicle: saline); 144 % of control (T/C endpoint: mean survival time, dose: 12.0 mg/kg/injection, schedule: Q01DX001 (ip), vehicle: saline); 125 % of control (T/C endpoint: mean survival time, dose: 12.5 mg/kg/injection, schedule: Q01DX001 (ip), vehicle: saline); 146 % of control (T/C endpoint: mean survival time, dose: 96.0 mg/kg/injection, schedule: Q01DX001 (ip), vehicle: saline). Moreover, the survivor count by setting is: (T/C endpoint: mean survival time, dose: 145.0 mg/kg/injection, schedule: Q01DX001 (ip), vehicle: saline) 6 of 6; (T/C endpoint: mean survival time, dose: 337.0 mg/kg/injection, schedule: Q01DX001 (ip), vehicle: saline) 9 of 10; (T/C endpoint: mean survival time, dose: 500.0 mg/kg/injection, schedule: Q01DX001 (ip), vehicle: saline) 10 of 10; (T/C endpoint: mean survival time, dose: 750.0 mg/kg/injection, schedule: Q01DX001 (ip), vehicle: saline) 5 of 10.

With `CC12CC3(C)CC(C)(C1)CC(NC(=O)N(CCCl)N=O)(C2)C3`, the T/C by setting is: (T/C endpoint: mean survival time, dose: 250.0 mg/kg/injection, schedule: Q01DX001 (ip), vehicle: other) 134 % of control; (T/C endpoint: mean survival time, dose: 375.0 mg/kg/injection, schedule: Q01DX001 (ip), vehicle: other) 131 % of control; (T/C endpoint: mean survival time, dose: 500.0 mg/kg/injection, schedule: Q01DX001 (ip), vehicle: other) 132 % of control; (T/C endpoint: mean survival time, dose: 750.0 mg/kg/injection, schedule: Q01DX001 (ip), vehicle: other) 126 % of control; (T/C endpoint: mean survival time, dose: 1000.0 mg/kg/injection, schedule: Q01DX001 (ip), vehicle: other) 143 % of control [5 of 6 alive]. Moreover, the survivor count (T/C endpoint: mean survival time, dose: 1500.0 mg/kg/injection, schedule: Q01DX001 (ip), vehicle: other) is given as 3 of 6.

With `O=NN(CCF)C(=O)NC12CC3CC(CC(C3)C1)C2`, the T/C runs as follows: (T/C endpoint: mean survival time, dose: 80.0 mg/kg/injection, schedule: Q01DX001 (ip), vehicle: other) 134 % of control; under setting [1], 136 % of control. The survivor count runs as follows: (T/C endpoint: mean survival time, dose: 187.0 mg/kg/injection, schedule: Q01DX001 (ip), vehicle: other) 10 of 10; (T/C endpoint: mean survival time, dose: 280.0 mg/kg/injection, schedule: Q01DX001 (ip), vehicle: other) 10 of 10.

Regarding `c1cc2n(n1)CCN2`, the survivor count is on record as 4 of 8 (T/C endpoint: median survival time, dose: 300.0 mg/kg/injection, schedule: Q01DX009 (ip), vehicle: water); 1 of 8 (T/C endpoint: median survival time, dose: 400.0 mg/kg/injection, schedule: Q01DX009 (ip), vehicle: water); 5 of 8 (T/C endpoint: median survival time, dose: 600.0 mg/kg/injection, schedule: Q04DX003 (ip), vehicle: water). Besides, the T/C runs as follows: (T/C endpoint: median survival time, dose: 400.0 mg/kg/injection, schedule: Q04DX003 (ip), vehicle: water) 135 % of control; (T/C endpoint: median survival time, dose: 800.0 mg/kg/injection, schedule: Q04DX003 (ip), vehicle: water) 134 % of control [6 of 8 alive].

As to `CCOC(=O)C1(NC(=O)N(CCCl)N=O)CCCCC1`, the T/C under setting [1] was 129 % of control.

As to `NC(=O)N(CCCl)N=O`, the T/C (T/C endpoint: mean survival time, dose: 1.5 mg/kg/injection, schedule: Q01DX001 (ip), vehicle: carboxymethylcellulose (CMC)) was 126 and 133 % of control; the T/C (T/C endpoint: mean survival time, dose: 2.25 mg/kg/injection, schedule: Q01DX001 (ip), vehicle: carboxymethylcellulose (CMC)) is 134 and 139 % of control; the T/C (T/C endpoint: mean survival time, dose: 3.35 mg/kg/injection, schedule: Q01DX001 (ip), vehicle: carboxymethylcellulose (CMC)) was 141 and 145 % of control; the T/C (T/C endpoint: mean survival time, dose: 3.6 mg/kg/injection, schedule: Q01DX001 (ip), vehicle: saline) was 148 % of control [9 of 10 alive]. Besides, the survivor count is 9 of 10 (T/C endpoint: mean survival time, dose: 7.5 mg/kg/injection, schedule: Q01DX001 (ip), vehicle: carboxymethylcellulose (CMC)); 9 of 10 (T/C endpoint: mean survival time, dose: 14.0 mg/kg/injection, schedule: Q01DX001 (ip), vehicle: saline); 10 of 10 (T/C endpoint: mean survival time, dose: 14.4 mg/kg/injection, schedule: Q01DX001 (ip), vehicle: saline); 5 of 10 (T/C endpoint: mean survival time, dose: 28.8 mg/kg/injection, schedule: Q01DX001 (ip), vehicle: saline).

Regarding `CN(N=O)C(N)=O`, the survivor count is, setting by setting: (T/C endpoint: mean survival time, dose: 144.0 mg/kg/injection, schedule: Q01DX001 (ip), vehicle: saline) 6 of 10; (T/C endpoint: mean survival time, dose: 288.0 mg/kg/injection, schedule: Q01DX001 (ip), vehicle: saline) 0 of 10.

With `O=NN(CCF)C(=O)NCCCl`, the survivor count by setting is: (T/C endpoint: mean survival time, dose: 48.0 mg/kg/injection, schedule: Q01DX001 (ip), vehicle: Klucel (hydroxypropylcellulose) (HPC)) 6 of 10; (T/C endpoint: mean survival time, dose: 71.0 mg/kg/injection, schedule: Q01DX001 (ip), vehicle: Klucel (hydroxypropylcellulose) (HPC)) 5 of 10.

Consider `S=C=NCCc1ccccc1`, for which, under “T/C endpoint: mean survival time, dose: 100.0 mg/kg/injection, schedule: Q01DX009 (ip), vehicle: saline with Tween-80”, the survivor count is on record as 4 of 6.

Take `N#CCCNC(=O)N(CCC#N)N=O`: the survivor count is, setting by setting: (T/C endpoint: mean survival time, dose: 375.0 mg/kg/injection, schedule: Q01DX001 (ip), vehicle: carboxymethylcellulose (CMC)) 2 of 10; (T/C endpoint: mean survival time, dose: 562.0 mg/kg/injection, schedule: Q01DX001 (ip), vehicle: carboxymethylcellulose (CMC)) 3 of 10.

The values are drawn from PubChem BioAssay AID252 (DTP/NCI, 2004).
